# Measured values published in PubChem BioAssay AID1487 (National Center for Advancing Translational Sciences (NCATS), 2009).
# The list shows a part of the results. Shown are side measurements of this screen, not its main read-out; they come without a call. Most of these compounds were active or inconclusive in the main read-out, so they are no random draw. Potencies come from curve fits of mixed quality, noted in brackets.
# Assay: qHTS Assay for Modulators of Lamin A Splicing
# Settings: HeLa LMNA splicing GFP/RFP minigene ratio, 48 h
# Procedure, shortened: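 S3 HeLa cells stably expressing lamin A-EGFP splicing minigene plus DsRed2, 600 cells/well, 48 h compound exposure at 37C. Laser-scanning cytometry; analysed as GFP (500-530 nm)/RFP (575-640 nm) total intensity ratio; 0.5% DMSO vehicle.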
# [1] = measured here: RFP viability control channel
# [2] = measured here: GFP splicing reporter channel
Structure (SMILES),AC50 [1],AC50 [2]
Cc1cc(C(=O)COC(=O)CNS(=O)(=O)c2ccc3ccccc3c2)c(C)n1-c1ccccc1,"17.8 µM [rising, single point]",–
COc1ccccc1CNC(=O)C1CCN(Cc2cc3ccccc3n2Cc2cccc(C)c2)CC1,"0.178 µM [rising, full curve]",–
CCC(Oc1cc(Cl)ccc1Cl)C(=O)NN1C(=O)C2C3CCC(C3=C(C)C)C2C1=O (stereo unspecified),"22.4 µM [rising, single point]",–
CNc1sc(C(=O)c2ccc(F)cc2)c(N)c1-c1nc2ccccc2s1,"17.8 µM [rising, single point]",–
O=C(NNC(=S)NC(=O)c1cccs1)c1ccc(NC(=O)c2ccccc2)cc1,"0.1 µM [rising, full curve, poor fit]",–
O=C1/C(=C\c2ccc(-c3ccccc3[N+](=O)[O-])o2)C(c2ccccc2)=NN1c1ccccc1,"35.5 µM [rising, single point]",–
COc1cccc(/C=N/NC(=O)CSc2nnc(C)n2-c2ccccc2)c1O,–,"28.2 µM [falling, single point]"
CCOC(=O)C1CCN(C(=O)NS(=O)(=O)c2ccc(C)cc2)CC1,"0.0447 µM [rising, full curve, poor fit]","0.00355 µM [rising, full curve, poor fit]"
Cc1cccc(/C=N\Nc2cn[nH]c(=O)c2Cl)c1,"7.08 µM [falling, partial curve]","8.91 µM [falling, partial curve]"
CCC1CN(C(=O)N2CCC(C(=O)N3CCN(c4ccc(F)cc4)CC3)CC2)c2ccccc2O1 (stereo unspecified),"35.5 µM [rising, single point]",–
Cc1c(C(=O)Nc2ccccc2Br)oc2ccc(S(=O)(=O)N3CCOCC3)cc12,"0.0631 µM [falling, full curve]",–
NC(=O)C1CCN(C(=O)COc2ccc(S(=O)(=O)NCc3ccccc3)cc2Cl)CC1,–,"12.6 µM [rising, single point]"
COc1ccc(S(=O)(=O)N2CCCC2C(=O)Nc2nc3c(s2)CCCC3)cc1 (stereo unspecified),"12.6 µM [rising, partial curve]",–
Cc1ccc2cc(C(c3nnnn3C(C)(C)C)N3CCCC3)c(=O)[nH]c2c1C (stereo unspecified),"1 µM [falling, partial curve]",–
CN(Cc1ccccc1NS(=O)(=O)c1ccc(Cl)cc1)C1CCCCC1,"5.62 µM [rising, full curve, poor fit]","4.47 µM [rising, full curve, poor fit]"
O=C(NCC(c1ccc2c(c1)OCO2)N1CCN(c2ccccc2)CC1)c1ccccc1 (stereo unspecified),"0.0398 µM [falling, full curve, poor fit]","22.4 µM [falling, partial curve, poor fit]"
CC(C)N(C(=O)CSc1nnnn1-c1ccc2c(c1)OCO2)C(C)C,"35.5 µM [falling, partial curve]",–
O=C(NC(=S)Nn1cnc2c(cnn2-c2ccccc2)c1=O)c1ccc(Oc2ccccc2)cc1,"0.0158 µM [rising, full curve, poor fit]","14.1 µM [rising, partial curve]"

Structure (SMILES),AC50 [1],AC50 [2]
O=C(COc1ccc(S(=O)(=O)N2CCOCC2)cc1)N1CCCCCC1,"0.00447 µM [falling, full curve, poor fit]",–
O=c1c2ccccc2nc2n1CCc1c-2[nH]c2ccccc12,"0.708 µM [falling, full curve, poor fit]",–
O=C(NCCN1CCOCC1)NC1(C(F)(F)F)Oc2ccccc2O1,"15.8 µM [rising, single point]","17.8 µM [rising, single point]"
Cc1sc2ncnc(SCC(=O)NNC(=O)c3ccco3)c2c1C,"1.58 µM [rising, partial curve, poor fit]",–
CCOc1ccc2nc(NCCNC(=S)NCCCN(C)C)c(C#N)cc2c1,–,"1.41 µM [falling, full curve, poor fit]"
COc1ccc(Cl)cc1NS(=O)(=O)c1c(C)[nH]c(=O)[nH]c1=O,"31.6 µM [rising, single point]","12.6 µM [rising, partial curve, poor fit]"
COc1ccc(OC)c(C2CC(=O)c3c([nH]c(C(=O)OCC4CCCO4)c3C)C2)c1 (stereo unspecified),"15.8 µM [rising, single point]",–
COc1ccc(Nc2ncnc3c2nc2n3CCCC2)cc1Cl,–,"12.6 µM [falling, partial curve, poor fit]"
Cc1ccc(N=c2sc(C)c(C)n2C)cc1,"20 µM [rising, partial curve, poor fit]",–
CCOC(=O)c1ccc(/C=C2/C=C(c3ccccc3)N(c3ccc(Cl)c(C(=O)O)c3)C2=O)cc1,"12.6 µM [rising, partial curve, poor fit]","10 µM [rising, partial curve]"
Cc1cccc(/C=C(\C(=O)C(=O)O)c2ccc3ccccc3n2)c1,"8.91 µM [rising, partial curve, poor fit]",–
CCSc1nc(-c2ccccc2)nc(C(Cl)Cl)n1,"35.5 µM [falling, single point]","35.5 µM [falling, single point]"
CCOc1ccc(OCC)c(NC(=O)CN(C)S(=O)(=O)c2ccc3nc(C)sc3c2)c1,"14.1 µM [rising, partial curve]","12.6 µM [rising, partial curve, poor fit]"
C=C(C)CN=C1NN=C(c2cc(C)n(-c3ccc(C)cc3)c2C)CS1,"12.6 µM [rising, partial curve]","1.26 µM [rising, full curve, poor fit]"
CCCS/C(N)=N/N=C/c1cc(C)ccc1O,–,"35.5 µM [rising, single point]"
O=C(c1ccc(Cl)c(Cl)c1)N1CCC(=O)N(C(COCc2cccc(C(F)(F)F)c2)Cc2ccccc2)CC1 (stereo unspecified),–,"0.0891 µM [falling, full curve]"
Cc1csc(NC(=O)c2ccc(S(=O)(=O)N(C)c3ccccc3)cc2)n1,"10 µM [rising, partial curve]",–

# By substructure: those above containing a COOH group (2)
Structure (SMILES),AC50 [1],AC50 [2]
CCOC(=O)c1ccc(/C=C2/C=C(c3ccccc3)N(c3ccc(Cl)c(C(=O)O)c3)C2=O)cc1,"12.6 µM [rising, partial curve, poor fit]","10 µM [rising, partial curve]"
Cc1cccc(/C=C(\C(=O)C(=O)O)c2ccc3ccccc3n2)c1,"8.91 µM [rising, partial curve, poor fit]",–
